# Library screening results

Sequences of proteins named here, by UniProt entry; tags and fusion partners are left off.
UniProt E9BF75, entry or part of it: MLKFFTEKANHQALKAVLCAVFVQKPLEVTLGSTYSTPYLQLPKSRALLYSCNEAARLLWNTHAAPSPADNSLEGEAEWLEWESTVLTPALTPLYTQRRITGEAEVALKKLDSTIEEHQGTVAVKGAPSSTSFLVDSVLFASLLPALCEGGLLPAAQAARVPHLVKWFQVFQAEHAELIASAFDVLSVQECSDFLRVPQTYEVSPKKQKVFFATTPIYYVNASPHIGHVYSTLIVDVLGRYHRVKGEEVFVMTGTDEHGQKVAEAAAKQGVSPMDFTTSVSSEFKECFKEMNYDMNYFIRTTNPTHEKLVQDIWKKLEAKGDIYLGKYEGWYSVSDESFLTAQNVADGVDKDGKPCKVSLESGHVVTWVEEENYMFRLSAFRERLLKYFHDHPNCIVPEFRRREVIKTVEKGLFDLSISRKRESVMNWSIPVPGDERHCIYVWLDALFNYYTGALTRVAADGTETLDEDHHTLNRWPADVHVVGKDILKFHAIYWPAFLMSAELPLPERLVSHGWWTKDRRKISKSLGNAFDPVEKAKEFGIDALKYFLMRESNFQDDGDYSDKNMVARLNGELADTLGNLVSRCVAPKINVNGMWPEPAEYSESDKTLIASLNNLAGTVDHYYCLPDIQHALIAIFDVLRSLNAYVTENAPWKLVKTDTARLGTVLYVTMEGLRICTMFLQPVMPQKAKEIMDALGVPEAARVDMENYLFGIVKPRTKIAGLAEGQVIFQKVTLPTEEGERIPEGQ

Source: ChEMBL document CHEMBL3988442, “University of Dundee, Small-Polar-MMV Screening Library” (2021).

Results are percentages, as filed. The controls that fix the scale are not given in the record; negative values are as filed. This is an unselected part of the compounds tested.

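Primary screen of methionyl-tRNA synthetase; the read-out is not stated. Target: Methionyl-tRNA synthetase (putative), Leishmania donovani (UniProt E9BF75). The test concentration is not given. Values are per cent inhibition. Of about 68,000 compounds tested this way, about 24 (0.035%) reached 50% or more in at least one test.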

| # | SMILES | Inhibition |
|---|---|---|
| 1 | `O=C1CO[C@H]2CN(Cc3ccc(F)c(F)c3)C[C@H]2N1` | 5.085% |
| 2 | `CCc1nc2ccccc2c(=O)n1CC1(O)CCN(CC(=O)OC)CC1` | 5.729% |
| 3 | `CCOCC(=O)N1CC[C@H]2OCC[C@@]2(COc2ncccc2F)C1` | 6.529% |
| 4 | `CNC(=O)[C@H]1C[C@@H]2CN(C(=O)c3ccoc3)C[C@@H]2N1S(C)(=O)=O` | 13.97% |
| 5 | `COc1c(C)cnc(CN2CCC(N(C)C(C)C(N)=O)CC2)c1C` (stereo unspecified) | 6.073% |
| 6 | `Cc1nc(CN2CCCC(NCc3nc4ccccc4s3)C2)no1` (stereo unspecified) | 11.68% |
| 7 | `CC1CCc2nc(NC(=O)CN(C)C(=O)c3ccco3)sc2C1` (stereo unspecified) | 3.147% |
| 8 | `O=C(N[C@@H]1CN[C@H]2CCCO[C@H]21)c1cnccn1` | 8.125% |
| 9 | `Cc1ccc(NS(=O)(=O)c2cc3c(c(C(=O)O)c2)OCCO3)cc1C` | 23.21% |
| 10 | `CC(C)Cc1cc(CN2C[C@H]3CC[C@@H]2CN(Cc2cscn2)C3)n[nH]1` | 7.673% |
| 11 | `O=C(NCc1cc(Cl)ccn1)NCc1ccco1` | 12.54% |
| 12 | `CC(Cn1cccn1)n1cnc2cccc(Cl)c2c1=O` (stereo unspecified) | -12.79% |
| 13 | `O=C(CCc1cccs1)N1CCCC(N2CCNC2=O)C1` (stereo unspecified) | 12.15% |
| 14 | `CCOCCNC1(c2ccc(Cl)cc2)CCOCC1` | -3.97% |
| 15 | `O=C(c1ccc(N2CCOCC2)nc1)N1CCCC(n2cccn2)C1` (stereo unspecified) | 12.02% |
| 16 | `COc1ccc(-c2nc(CN3CC(n4nc(C)cc4C)C3)no2)cc1` | 14.96% |
| 17 | `CCCNCc1ccc(-c2cc(N)nc3[nH]ccc23)cc1` | 27.16% |
| 18 | `COc1ccc(C(=O)NC2CC2)c(OC)c1` | 11.14% |
| 19 | `CCc1nc(-c2noc3ccc(C(=O)NCCN(C)C)cc23)co1` | 12.24% |
| 20 | `COc1ccc2c(c1)C(=O)N(C)C1(CCN(C(=O)OC(C)(C)C)CC1)N2` | 7.853% |
| 21 | `O=C(NC1CC1)c1ccnc(N2CCOC(c3ccc(Cl)cc3)C2)c1` (stereo unspecified) | 5.028% |
| 22 | `Cc1noc(C)c1CN1CCN(C)c2ncccc2C1` | 15.93% |
| 23 | `COc1ccc(CN2CC(n3cccn3)C2)cc1F` | 17.04% |
| 24 | `N#Cc1ccc(CN2CCN(C(=O)c3cc(C4CC4)[nH]n3)CC2)cc1` | 11.75% |
| 25 | `CCOC(=O)c1sc2ccsc2c1CNC(=O)CC` | 15.56% |
| 26 | `CC(CCN1CCC(n2cc(CCO)nn2)CC1)c1ccccc1` (stereo unspecified) | 10.18% |
| 27 | `CCOc1ccc(CNCc2cccnc2N(C)C)cc1` | 8.115% |
| 28 | `N#Cc1cc(S(N)(=O)=O)ccc1N1CCc2c(Cl)cccc2C1` | 1.961% |
| 29 | `Cc1ccsc1-c1nccn1CCS(C)(=O)=O` | 9.42% |
| 30 | `Cc1ccc(CCNC(=O)c2cccnc2)o1` | 0.6969% |
| 31 | `CC(CNC(=O)CCn1cncn1)N1CCc2ccccc21` (stereo unspecified) | 4.237% |
| 32 | `Cc1occc1C(=O)N(CCN(C)C)Cc1ccccn1` | 3.472% |
| 33 | `CN(C)S(=O)(=O)N1CCCC(c2cccc(Cc3ccccc3F)n2)C1` (stereo unspecified) | 12.94% |
| 34 | `Cc1nc(O)ccc1C(=O)NCc1ncoc1C` | 2.326% |
| 35 | `CS(=O)(=O)Cc1noc(CN(Cc2ccco2)c2ccccc2)n1` | 6.991% |
| 36 | `O=C(NCCc1noc(C2CCCO2)n1)c1cn2ccsc2n1` (stereo unspecified) | 14.32% |
| 37 | `CC(=O)N1CCn2c(COCc3csc(C)n3)cnc2C1C` (stereo unspecified) | 15.48% |
| 38 | `Cc1noc(C)c1C(=O)NCc1ccc(N2CCOCC2)nc1` | 14.74% |
| 39 | `Nc1nccnc1CC1CCCN(Cc2c[nH]c3ccccc23)C1` (stereo unspecified) | 11.02% |
| 40 | `COc1cccc(-c2cnc3n2CCC32CCN(C(C)=O)CC2)c1` | 17.39% |
| 41 | `C/C(=C\c1ccco1)CN(C)C(C)Cc1cc(C)ccn1` (stereo unspecified) | 11.72% |
| 42 | `CC(C)(NS(C)(=O)=O)c1nc(-c2ccncc2)no1` | 6.452% |
| 43 | `Cc1ccc2nc(-c3cnc(N)nc3)c(C)c(C(=O)N(C)C)c2c1` | 7.971% |
| 44 | `COc1cccc(NC(=O)N(CCO)Cc2ccsc2)c1` | 19.47% |
| 45 | `Cc1nc(C2CCCN2Cc2ccon2)no1` (stereo unspecified) | 13.86% |
| 46 | `CN(C)[C@@H]1CO[C@H](CNC(=O)CC(C)(C)C)[C@H]1O` | 6.015% |
| 47 | `CN(C)C[C@H]1C[C@@H]2CN(Cc3ccco3)C[C@@H]2O1` | 13.45% |
| 48 | `CC(C)n1nc(CNc2ncccn2)c2c1CN(S(C)(=O)=O)CC2` | 13.64% |
| 49 | `Cn1cc(CN2C[C@@H]3COC[C@]3(C(=O)NCCc3ccccc3)C2)cn1` | 7.107% |
| 50 | `O=C(NC1CCCN(c2ccccc2F)C1)c1ccon1` (stereo unspecified) | 11.7% |
| 51 | `CCc1nc(CN2CCN(C(=O)C3CCCCC3)CC2)cs1` | 12.88% |
| 52 | `Cc1c(CNCC(C)Oc2cccnc2)c2ccccc2n1CC(N)=O` (stereo unspecified) | 2.74% |
| 53 | `COc1ccc(C(=O)COc2coc(CN3CCCCC3)cc2=O)cc1` | 16.91% |
| 54 | `C[C@@H]1CN(C(=O)c2cn(CCN3CCCCC3)nn2)C[C@H](C)O1` | 10.99% |
| 55 | `CCOc1cc(F)ccc1NC(=O)N(C)Cc1cnn(C)c1` | 18.71% |
| 56 | `CCc1nccc(CN2CCCC(CNC(=O)c3ccccn3)C2)n1` (stereo unspecified) | 10.7% |
| 57 | `COc1cccc(C2SCC(=O)Nc3ccsc32)c1OC` (stereo unspecified) | 3.896% |
| 58 | `Cc1nc(N2CCN(C)CC2)ncc1C(=O)N1CCCCCC1` | 15.67% |
| 59 | `COC(=O)CCC(=O)N1CCc2[nH]nc(-c3ccc4c(c3)OCO4)c2C1` | 10.78% |
| 60 | `CN(Cc1cc2n(n1)CCN(C(=O)c1cccnc1)C2)Cc1nccs1` | 18.02% |
| 61 | `Cc1cc(CNc2cncc(C(=O)N(C)C)n2)c2[nH]c(C)c(C)c2c1` | 24.22% |
| 62 | `COc1ccc(CN2CCCC2c2cccc(F)c2)c(OC)c1OC` (stereo unspecified) | 14.21% |
| 63 | `CC(C)Nc1ncnc2c1CCNCC2` | 16.26% |
| 64 | `CC(C(=O)Nc1cccc(F)c1)N(C)CCN1CCOCC1` (stereo unspecified) | 12.54% |
| 65 | `CC(C)c1nc2n(n1)CC(NCC(=O)NCCC1=CCCCC1)CC2` (stereo unspecified) | 6.183% |
| 66 | `CN(Cc1ccc(Cl)s1)C(=O)Cn1nc(-c2ccc(F)cc2)oc1=O` | 0.2882% |
| 67 | `FC(F)(F)COc1cccc(-c2nc3c([nH]2)CCNC3)c1` | 5.625% |
| 68 | `CCCS(=O)(=O)N1CCC(Nc2c(F)cc(C#N)cc2F)CC1` | 6.425% |
| 69 | `CC1CCN(S(=O)(=O)c2cccnc2)c2ccccc2S1` (stereo unspecified) | 11.98% |
| 70 | `CC(C)c1nnc2n1CC(CNCc1cccnc1)CC2` (stereo unspecified) | 11.66% |
| 71 | `Nc1nccnc1C1CN(C(=O)c2ccnnc2)CCO1` (stereo unspecified) | 14.79% |
| 72 | `COc1ccc(N(C(=O)Cc2ccc(C)nc2)C(C)C)cc1F` | -0.2688% |
| 73 | `O=C1CC(c2ccccc2)C2(CCN(Cc3ccccn3)CC2)N1` (stereo unspecified) | 12.46% |
| 74 | `CC(C)(C)C(O)CN1CCN(C(=O)c2ccc3c(c2)COC3)CC1` (stereo unspecified) | 4.225% |
| 75 | `COc1ccccc1CC1CCCN1C(=O)c1cn[nH]c1C` (stereo unspecified) | 13.97% |

For reference, 8 entries once more:

CC(=O)N1CCn2c(COCc3csc(C)n3)cnc2C1C (stereo unspecified) read 15.48%.
C[C@@H]1CN(C(=O)c2cn(CCN3CCCCC3)nn2)C[C@H](C)O1 read 10.99%.
Cc1c(CNCC(C)Oc2cccnc2)c2ccccc2n1CC(N)=O (stereo unspecified) read 2.74%.
Cc1ccc2nc(-c3cnc(N)nc3)c(C)c(C(=O)N(C)C)c2c1 read 7.971%.
CC(C)Nc1ncnc2c1CCNCC2 read 16.26%.
Cc1noc(C)c1CN1CCN(C)c2ncccc2C1 read 15.93%.
CC(Cn1cccn1)n1cnc2cccc(Cl)c2c1=O (stereo unspecified) read -12.79%.
Cn1cc(CN2C[C@@H]3COC[C@]3(C(=O)NCCc3ccccc3)C2)cn1 read 7.107%.